Data from paper PMC5618690, “Structural and functional analysis of two small leucine-rich repeat proteoglycans, fibromodulin and chondroadherin” (Matrix Biology, 2017).
No constants are given. Whether binding was seen depends on the method and setting.

Assays:
[1] = target: human fibromodulin with ten N-terminal tyrosines mutated to serine (human) (UniProt Q06828); experiment: condition: injected at 10 mg/ml; peak protein concentration at least 50 μM; SEC-MALS; 10 mg/ml injected onto Superdex 75 10/30; 150 mM NaCl, 20 mM HEPES pH 7.5; 0.1 ml/min; peak protein concentration estimated at least 50 μM; both purified
[2] = target: human chondroadherin (human) (UniProt O15335); experiment: as above

Row | Binder | binding [1] | binding [2]
1 | human fibromodulin with ten N-terminal tyrosines mutated to serine (protein, UniProt Q06828 19-376, N-linked glycans at Asn127, Asn166, Asn201, Asn291) GALAQYEDDPHWWFHYLRSQQSTSSDPSDPSPSETSEPSPSGVDEGPASTSGSPSPPDPRDCPQECDCPPNFPTAMYCDNRNLKYLPFVPSRMKYVYFQNNQITSIQEGVFDNATGLLWIALHGNQITSDKVGRKVFSKLRHLERLYLDHNNLTRMPGPLPRSLRELHLDHNQISRVPNNALEGLENLTALYLQHNEIQEVGSSMRGLRSLILLDLSYNHLRKVPDGLPSALEQLYMEHNNVYTVPDSYFRGAPKLLYVRLSHNSLTNNGLASNTFNSSSLLELDLSYNQLQKIPPVNTNLENLYLQGNRINEFSISSFCTVVDVVNFSKLQVLRLDGNEIKRSAMPADAPLCLRLASLIEI | no binding | 
2 | human chondroadherin (protein, UniProt O15335 23-359) APLACPQNCHCHSDLQHVICDKVGLQKIPKVSEKTKLLNLQRNNFPVLAANSFRAMPNLVSLHLQHCQIREVAAGAFRGLKQLIYLYLSHNDIRVLRAGAFDDLTELTYLYLDHNKVTELPRGLLSPLVNLFILQLNNNKIRELRAGAFQGAKDLRWLYLSENALSSLQPGALDDVENLAKFHVDRNQLSSYPSAALSKLRVVEELKLSHNPLKSIPDNAFQSFGRYLETLWLDNTNLEKFSDGAFLGVTTLKHVHLENNRLNQLPSNFPFDSLETLALTNNPWKCTCQLRGLRRWLEAKASRPDATCASPAKFKGQHIRDTDAFRSCKFPTKRSKKAGRH |  | no binding
